# These are yes or no findings as the source states them, for the method shown. Binding seen in cells or lysates may run through a third protein. Some binding calls cover weakened binding; strength is not graded here.
# Sequences of proteins named here, by UniProt entry; tags and fusion partners are left off.
# UniProt P21796: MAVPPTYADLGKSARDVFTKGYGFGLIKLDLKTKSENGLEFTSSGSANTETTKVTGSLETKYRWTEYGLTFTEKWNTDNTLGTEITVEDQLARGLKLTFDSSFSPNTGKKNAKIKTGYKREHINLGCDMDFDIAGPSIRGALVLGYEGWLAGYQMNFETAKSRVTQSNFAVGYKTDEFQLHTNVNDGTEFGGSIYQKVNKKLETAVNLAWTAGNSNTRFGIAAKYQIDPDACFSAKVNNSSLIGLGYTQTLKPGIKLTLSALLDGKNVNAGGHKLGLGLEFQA
# B1: hexokinase (HK), endogenous in 293T-TAU441 cells (enzyme, UniProt P19367 1-917)
# chain: MIAAQLLAYYFTELKDDQVKKIDKYLYAMRLSDETLIDIMTRFRKEMKNGLSRDFNPTATVKMLPTFVRSIPDGSEKGDFIALDLGGSSFRILRVQVNHEKNQNVHMESEVYDTPENIVHGSGSQLFDHVAECLGDFMEKRKIKDKKLPVGFTFSFPCQQSKIDEAILITWTKRFKASGVEGADVVKLLNKAIKKRGDYDANIVAVVNDTVGTMMTCGYDDQHCEVGLIIGTGTNACYMEELRHIDLVEGDEGRMCINTEWGAFGDDGSLEDIRTEFDREIDRGSLNPGKQLFEKMVSGMYLGELVRLILVKMAKEGLLFEGRITPELLTRGKFNTSDVSAIEKNKEGLHNAKEILTRLGVEPSDDDCVSVQHVCTIVSFRSANLVAATLGAILNRLRDNKGTPRLRTTVGVDGSLYKTHPQYSRRFHKTLRRLVPDSDVRFLLSESGSGKGAAMVTAVAYRLAEQHRQIEETLAHFHLTKDMLLEVKKRMRAEMELGLRKQTHNNAVVKMLPSFVRRTPDGTENGDFLALDLGGTNFRVLLVKIRSGKKRTVEMHNKIYAIPIEIMQGTGEELFDHIVSCISDFLDYMGIKGPRMPLGFTFSFPCQQTSLDAGILITWTKGFKATDCVGHDVVTLLRDAIKRREEFDLDVVAVVNDTVGTMMTCAYEEPTCEVGLIVGTGSNACYMEEMKNVEMVEGDQGQMCINMEWGAFGDNGCLDDIRTHYDRLVDEYSLNAGKQRYEKMISGMYLGEIVRNILIDFTKKGFLFRGQISETLKTRGIFETKFLSQIESDRLALLQVRAILQQLGLNSTCDDSILVKTVCGVVSRRAAQLCGAGMAAVVDKIRENRGLDRLNVTVGVDGTLYKLHPHFSRIMHQTVKELSPKCNVSFLLSEDGSGKGAALITAVGVRLRTEASS
# Target: voltage-dependent anion channel (VDAC I), endogenous in 293T-TAU441 cells (human (endogenous in 293T)) (UniProt P21796)
# Assay: co-IP; lysate of 293T-TAU441 cells after arsenite, with and without a 16 T magnetic field; anti-VDAC I antibody (AF1027) on protein A/G magnetic beads, 1 h at room temperature; Western blot for HK and Bax
binder,measurement,value
B1,binding,binds
